Results reported in patent US7067523B2, “Use of pyrone carboxylates for controlling pests” (Sumitomo Chemical Company, Limited, priority 2002, dated 2006).
Some results were stated once for a whole list of compounds, not compound by compound.

The compounds below were run on Blattela germanica (assay: Topical application to adult female Blattela germanica, mortality after 7 days). Settings: 1 μl of 2.5 μg/μl acetone solution applied to ventral thorax of adult female.
Format: in vivo
Protocol: 1 μl of a 20 μg/μl acetone solutions of each of the present compounds No. 1 and the control compound was applied onto the surface of the ventral region of the thorax of adult female Blattela germanica. These insects were kept with a feed (solid feed for rat, Oriental Yeast, Co., Ltd.) and water for 7 days. Subsequently, the insects were examined for death to obtain mortality (10 insects per group, triplicate).
In a similar manner to the Experiment example 1, using a 20 μg/μl acetone solution of each of the present compounds Nos. 2, 3, 4, 5, 6, 7, 10, 11, 13, 14, 15, 16 and 18 instead of the present compound No. 1 and the control compound, the experiment was carried out to obtain mortality of the cockroach.
In a similar manner to the Experiment example 1, using a 2.5 μg/μl acetone solution of each of the present compounds Nos. 5 and 6 instead of the present compound No. 1 and the control compound, the experiment was carried out to obtain mortality of the cockroach.
Compound `CCC(C)OC(=O)c1c(O)cc(C)oc1=O` (centres unmarked) [Compound No. 5, sec-butyl 4-hydroxy-6-methyl-2-oxo-2H-pyrane-3-carboxylate] has a mortality of at least 80%. `Cc1cc(O)c(C(=O)OCC(C)C)c(=O)o1` [Compound No. 6, isobutyl 4-hydroxy-6-methyl-2-oxo-2H-pyrane-3-carboxylate] was tested, and the mortality was at least 80%.

Same assay, conditions: 1 μl of 20 μg/μl acetone solution applied to ventral thorax of adult female, 10 insects per group, triplicate
For `CCCOC(=O)c1c(O)cc(C)oc1=O` [Compound No. 2, propyl 4-hydroxy-6-methyl-2-oxo-2H-pyrane-3-carboxylate], the mortality was at least 80%. `Cc1cc(O)c(C(=O)OC(C)C)c(=O)o1` [Compound No. 3, isopropyl 4-hydroxy-6-methyl-2-oxo-2H-pyrane-3-carboxylate] was tested, and the mortality was at least 80%. For `CCCCOC(=O)c1c(O)cc(C)oc1=O` [Compound No. 4, butyl 4-hydroxy-6-methyl-2-oxo-2H-pyrane-3-carboxylate], the mortality was at least 80%. `CCC(C)OC(=O)c1c(O)cc(C)oc1=O` (centres unmarked) [Compound No. 5, sec-butyl 4-hydroxy-6-methyl-2-oxo-2H-pyrane-3-carboxylate] showed a mortality of at least 80%. With `Cc1cc(O)c(C(=O)OCC(C)C)c(=O)o1` [Compound No. 6, isobutyl 4-hydroxy-6-methyl-2-oxo-2H-pyrane-3-carboxylate] the mortality was at least 80%. `Cc1cc(O)c(C(=O)OC(C)(C)C)c(=O)o1` [Compound No. 7, tert-butyl 4-hydroxy-6-methyl-2-oxo-2H-pyrane-3-carboxylate] gave a mortality of at least 80%. With `Cc1cc(O)c(C(=O)OC(C)C(C)C)c(=O)o1` (centres unmarked) [Compound No. 10, 1,2-dimethylpropyl 4-hydroxy-6-methyl-2-oxo-2H-pyrane-3-carboxylate] the mortality was at least 80%. `CCC(CC)OC(=O)c1c(O)cc(C)oc1=O` [Compound No. 11, 4-hydroxy-6-methyl-2-oxo-2H-pyrane-3-carboxylic acid 1-ethyl-propyl ester] was tested, and the mortality was at least 80%. `Cc1cc(O)c(C(=O)OCC2CC2)c(=O)o1` [Compound No. 13, cyclopropylmethyl 4-hydroxy-6-methyl-2-oxo-2H-pyrane-3-carboxylate] showed a mortality of at least 80%. Compound `Cc1cc(O)c(C(=O)OCC2CCC2)c(=O)o1` [Compound No. 15, cyclobutylmethyl 4-hydroxy-6-methyl-2-oxo-2H-pyrane-3-carboxylate] has a mortality of at least 80%. `Cc1cc(O)c(C(=O)OC2CCC2)c(=O)o1` [Compound No. 16, 4-hydroxy-6-methyl-2-oxo-2H-pyrane-3-carboxylic acid cyclobutyl ester] gave a mortality of at least 80%. Work on `Cc1cc(O)c(C(=O)OCCC(F)(F)F)c(=O)o1` [Compound No. 18, 4-hydroxy-6-methyl-2-oxo-2H-pyrane-3-carboxylic acid 3,3,3-trifluoropropyl ester] yielded a mortality of at least 80%.
